# Primary screen of a compound library

Source: ChEMBL document CHEMBL3988442, “University of Dundee, Small-Polar-MMV Screening Library” (2021).

Mtb growth Cornell: 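Whole-cell assay for inhibitors of Mycobacterium tuberculosis growth, labelled Cornell in the record; the read-out is not stated. The concentration is filed as 10 mM, unlikely as a test dose, so the dose is not known. The record gives no direction; compounds strong in two other growth screens of this library score well above the rest, so higher reads as stronger inhibition. About 53,000 compounds were tested under these conditions; 1.7% (about 900) showed 50% or more at least once.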
Mtb heat-shock: 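Assay on Mycobacterium tuberculosis, filed only as a heat shock assay from Cornell; the read-out is not stated. The concentration is filed as 10 mM, unlikely as a test dose, so the dose is not known. Direction is inferred from retests: higher values go with stronger inhibition. Size under these conditions: about 69,000 compounds, about 930 of them at 50% or above in at least one test.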

The filed quantity is “Percent Effect” (%).
How 0% and 100% were set is not recorded. Most values in the screen are low, and negative values occur.
This is an unselected part of the compounds tested.
A dash means the value is not listed here; it may have been measured.

Compound,Mtb growth Cornell,Mtb heat-shock
[H][C@@]12CN(S(C)(=O)=O)C[C@]1(C(=O)NCC1CC1)CCCN2c1ncccn1,-23.92%,29.48%
CC(SCC(=O)NC(N)=O)c1ccc(Cl)cc1 (stereo not drawn),-8.309%,-14.76%
CCS(=O)(=O)NC(CCSC)C(=O)Nc1ccccc1C (stereo not drawn),4.401%,-3.693%
CCn1ccnc1CNc1nccc(-c2cn(C)nc2C)n1,7.046%,12.87%
CSCCC(NC(=O)c1ccc2ccccc2n1)C(=O)O (stereo not drawn),-,-7.767%
Cc1cc(C)cc(CCC(=O)N2CCN(c3cc(C)nc(N)n3)CC2)c1,29.51%,5.754%
CCCc1noc(CN2CCCC2c2c(C)nn(C)c2OC)n1 (stereo not drawn),-,-8.322%
O=C(c1cccnc1)N1CCC2(CNS(=O)(=O)c3cnccc3O2)C1 (stereo not drawn),-,-23.4%
O=C(O)C(F)(F)F.[H][C@@]12C[C@@H](Oc3cccc(F)c3)CN1CCN(C(=O)c1cnccn1)C2,9.211%,-36.32%
Cc1ccccc1CNC(=O)CN1CCCC(Cc2nccn2C)C1 (stereo not drawn),9.226%,-6.138%
CC(C(=O)NCc1ccnc(N2CCOCC2)c1)n1cccn1 (stereo not drawn),-,-0.7864%
CC(C)c1cc(C(=O)NCCc2nc(-c3cccnc3)n[nH]2)[nH]n1,-4.519%,-16.68%
Cc1ccc(-c2noc(C(C)NS(C)(=O)=O)n2)cc1 (stereo not drawn),-,-35.93%
Cc1nc(C)n(C2CCCN(C(=O)COc3cccc(C#N)c3)C2)n1 (stereo not drawn),-18.98%,-8.802%
COc1ccccc1C(O)CNCc1c(C(C)C)nn(C)c1N(C)C (stereo not drawn),50.62%,28.27%
Cc1nn(C)c2c(NCc3ccncc3)nc(C3CC3)nc12,-8.977%,11.93%
COCC(NC(=O)c1cc(NC(C)=O)ccc1Cl)c1ccnn1C (stereo not drawn),6.7%,-6.656%
Cn1cc(Br)cc(NC(=O)CC(C)(C)C)c1=O,17%,14.45%
CC(C)(C)c1nnc(CN2CCCC2c2noc(C3CC3)n2)o1 (stereo not drawn),31.71%,14.92%
COc1ccc(CC(=O)Nc2c(C)nc(N3CCCC3)nc2C)cc1,59.35%,42.02%
COc1c(C2CCCN2Cc2nccn2C)c(C)nn1C (stereo not drawn),-,-20.5%
CC(=O)N1CCC(c2cncc(N3CCCCCC3)n2)CC1,25.08%,9.549%
CC(C)(O)CN1CC(C)(C)CN(C(=O)CCc2ccccc2)CC1=O,0.9924%,52.03%
Cc1[nH]c2ccc(CNc3cc(C(=O)NC(C)C)ccn3)cc2c1C,-16.46%,15.25%
[H][C@]12CC[C@]([H])(CN(C(C)=O)C1)N(C(=O)c1cccnc1SC)C2,2.864%,3.151%
CN(C)c1ncccc1NC(=O)COCC1CC1,-,-2.78%
COC(=O)CC(NC(=O)c1cccc(N2CCCC2=O)c1)c1cccs1 (stereo not drawn),11.39%,-0.8519%
O=C(O)C(F)(F)F.O=C(O)C(F)(F)F.O=C(c1cccnc1)N1CCn2nnc(COc3ccccn3)c2C1,-0.05884%,6.615%
CCCN1CCCn2nc(CNC(=O)CCc3scnc3C)cc2C1,-38.83%,8.309%
NC(=O)c1ccc(CN2CCC(N3CCCCC3)CC2)cc1,3.258%,-22.99%
CC(C)c1nnc2n1CCN(C(=O)c1cn(-c3ccccc3)nn1)C2,14.66%,-2.49%
CC(C)C1CN(C(=O)c2ccsc2)CCS1 (stereo not drawn),-,0.5729%
CC(C)C(=O)N1CCC(c2c(C(N)=O)sc3ccccc23)C1 (stereo not drawn),-20.56%,-21.89%
Cc1cnn(CCNCc2csc(-c3ccc(C)o3)n2)c1,-,64.15%
CNC(=O)c1ccc(CNCc2ccc(SC)c(OC)c2)cc1,-11.14%,-14.09%
CCn1c(CC2CCN(C(=O)c3ccnn3C)CC2)n[nH]c1=O,-11.94%,8.993%
O=C(Nc1ccnc(OC2CCOC2)c1)c1ccc(F)cc1Cl (stereo not drawn),1.296%,4.871%
CC(C)C(=O)N1CCCC1C(=O)Nc1ccc(F)c(F)c1 (stereo not drawn),-,6.563%
O=S(=O)(NCCNc1ccc(-n2cccc2)nn1)c1ccccc1,105.3%,100.9%
CC(C)c1cc(C(=O)NCCc2nc(-c3ccncc3)n[nH]2)[nH]n1,-14.27%,5.67%
Cc1ccc(NC2CCN(C(=O)c3c(C)noc3C)CC2)nn1,-,-0.8155%
COc1ccc(OCCC(=O)N2CCCC2Cn2cccn2)cc1 (stereo not drawn),-,-12.34%
COCCN1CCC(CNC(=O)C2(c3cc(C)cc(C)c3)CC2)CC1,2.093%,9.203%
Cc1ccc(CN(C)C(=O)NCC(=O)NC(C)(C)C)s1,8.579%,6.178%
CC(=O)N1CCCN(c2cc(C3CN(C)CCO3)nc(C)n2)CC1 (stereo not drawn),-34.66%,-19.88%
CC(Cc1c(F)cccc1F)NC(=O)CSCC(N)=O (stereo not drawn),8.756%,-11.74%
CN(C)CCOCC1CN(C(=O)[C@H]2CCCO2)Cc2ccnn2C1 (stereo partly drawn),6.235%,0.167%
CC(C)CN1CC(c2nc(CCc3ccccc3)n[nH]2)CC1=O (stereo not drawn),-9.816%,-6.84%
CC(NCC1CCN(CCO)CC1)c1ccc(F)c(Cl)c1 (stereo not drawn),-5.921%,2.432%
Cc1cc(C)cc(CN2CCN(C(=O)COCC3CCCO3)CC2=O)c1 (stereo not drawn),-,-2.991%
CC(C)n1ccnc1C1CCCN(c2ccncc2F)C1 (stereo not drawn),3.12%,-25.84%
Cc1nc(N2CCN(C(=O)c3cccnc3)CC2)cc(-n2cccc2)n1,19.53%,-12.98%
COc1ccc2c(=O)n(CC3CCNC3)ccc2c1OC (stereo not drawn),-,-11.27%
Cc1cc(C(=O)NS(C)(=O)=O)ccc1I,-28.98%,5.284%
CC(NCc1c(C(C)C)nn(C)c1N(C)C)C(=O)NC1CCCC1.Cl (stereo not drawn),-,-6.685%
O=C(O)C(F)(F)F.O=C(O)C(F)(F)F.O=C(O)C(F)(F)F.[H][C@]12CCN(Cc3ccccn3)[C@@]1([H])CC[C@@H](COCc1ccncc1)O2,-,5.621%
CC(C)COc1cncc(N(C)C2CCN(c3ncccn3)CC2)n1,-,11.64%
CC(O)CN1CCN(Cc2cccc(C(=O)N(C)C)c2)CC1 (stereo not drawn),12.61%,7.439%
Cc1nn(CCO)c(C)c1CNC1CCc2c(Cl)cccc21 (stereo not drawn),-0.2655%,-26.27%
CCN1CC(C(=O)N2CC(Oc3ccccc3Cl)C2)CCC1=O (stereo not drawn),-2.169%,-3.053%
CCCC(=O)NCCc1cc(N2CCN(C(C)=O)CC2)nc(C2CC2)n1,-14.38%,-7.446%
CN(C)c1ccc(C(=O)N2CCCN(Cc3cscn3)CC2)nn1,-,-37.67%
COc1ccc(NC(=O)Cn2nc(C)ccc2=O)cc1OC,-,13%
CSCc1nc(CCNC(=O)c2cnn(C(C)C)c2)cs1,-13.39%,-6.267%
N#Cc1cccc(N2CCC(c3nccn3Cc3cscn3)CC2)n1,-23.14%,-27.59%
CCOc1no[n+]([O-])c1-c1ccccc1,-1.336%,-6.52%
Cc1cccc(CN2CCCC(O)(CNCCN3CCCCC3)C2=O)c1 (stereo not drawn),-,-15.06%
Cn1nnc2c(N3CC(C(=O)NCCC4=CCCCC4)C3)ncnc21,-3.796%,-2.665%
CN(CC(=O)NCc1ccccn1)C1CCCN(c2cccnn2)C1 (stereo not drawn),-22.52%,-5.412%
[H][C@]12CCN(c3ncccc3C)C[C@]1(COC)CC[C@@H](N1CCOCC1)C2,-,21.96%
Cn1ccc2c(C(=O)N3CCN(C(=O)C4CCCC4)CC3)cccc21,-,-19.68%
O=C(NCc1ccccc1F)Nc1ccn(CCN2CCOCC2)n1,15.95%,-32.38%
CN1CCN(C(=O)[C@@H]2CN(C)C[C@]23COc2ccc(F)cc2C3=O)CC1,-38.25%,-17.88%
CN(C)c1cnn(CC(=O)N2CCN(c3ccccc3)CC2)c(=O)c1,10.55%,7.286%
COc1cc2c(cc1-c1nc3c(cnn3C(C)C3CC3)[nH]1)OCO2 (stereo not drawn),-,15.03%
Cc1nc(CNC2(C(=O)OC(C)(C)C)CCCC2)oc1C,-,-35.08%
O=C(NC1(C(=O)O)CCCCC1)C1Cc2ccccc2O1 (stereo not drawn),-,1.86%
CCCc1ncc(CNC2(c3ccc(Cl)cc3)CCC2)cn1,-23.84%,11.04%

Some entries from above, unchanged:

| Compound | Mtb growth Cornell | Mtb heat-shock |
|---|---|---|
| `CC(C)(O)CN1CC(C)(C)CN(C(=O)CCc2ccccc2)CC1=O` | 0.9924% | 52.03% |
| `Cc1ccc(NC2CCN(C(=O)c3c(C)noc3C)CC2)nn1` | - | -0.8155% |
| `CCCN1CCCn2nc(CNC(=O)CCc3scnc3C)cc2C1` | -38.83% | 8.309% |
| `Cc1nc(C)n(C2CCCN(C(=O)COc3cccc(C#N)c3)C2)n1` (stereo not drawn) | -18.98% | -8.802% |
| `CC(Cc1c(F)cccc1F)NC(=O)CSCC(N)=O` (stereo not drawn) | 8.756% | -11.74% |
| `Cn1cc(Br)cc(NC(=O)CC(C)(C)C)c1=O` | 17% | 14.45% |